# Source: PubChem BioAssay AID652016 (National Center for Advancing Translational Sciences (NCATS), 2013)
# The chains behind the UniProt entries cited, without tags or fusion partners.
# UniProt P08659, whole entry, looked up: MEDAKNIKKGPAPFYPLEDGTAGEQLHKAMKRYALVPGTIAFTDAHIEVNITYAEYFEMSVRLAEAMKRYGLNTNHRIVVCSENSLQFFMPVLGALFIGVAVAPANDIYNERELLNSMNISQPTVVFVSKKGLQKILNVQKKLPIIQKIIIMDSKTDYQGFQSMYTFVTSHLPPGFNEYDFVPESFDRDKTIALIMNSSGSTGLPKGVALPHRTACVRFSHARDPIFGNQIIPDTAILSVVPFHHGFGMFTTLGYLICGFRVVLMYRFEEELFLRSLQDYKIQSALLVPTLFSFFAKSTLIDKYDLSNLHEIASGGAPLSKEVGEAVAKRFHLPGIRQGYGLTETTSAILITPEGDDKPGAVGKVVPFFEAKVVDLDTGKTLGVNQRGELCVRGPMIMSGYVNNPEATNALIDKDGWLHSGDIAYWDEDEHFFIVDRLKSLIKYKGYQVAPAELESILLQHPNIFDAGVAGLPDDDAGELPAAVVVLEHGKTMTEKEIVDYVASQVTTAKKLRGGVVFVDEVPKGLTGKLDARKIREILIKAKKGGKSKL
# Values joined by “and” are separate entries in the source; they are usually repeats but may differ in a detail not shown here. Equal entries are not always repeated. This list was built around the results that the source calls inconclusive (neither active nor inactive); the mix of calls is not that of the screen. Potencies beside an inconclusive call are fits to weak or partial responses and may not hold up. Active and inactive are the calls of the source. Calls come from the whole dose curve; as a rule, active = well fitted inhibition curve with a large enough effect; inconclusive = small, poorly fitted or top-dose-only effect; inactive = flat fitted curve, though single readings scatter.
# Target: Luciferin 4-monooxygenase (Photinus pyralis) (UniProt P08659)
# Assay: qHTS Assay for Inhibitors of Firefly Luciferase from the GSK Published Protein Kinase Inhibitor Set
# Conditions: purified firefly luciferase, luminescence inhibition; series mostly up to 57.5 µM
# Procedure, shortened: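 Purified P. pyralis luciferase, 10nM, with 10uM D-luciferin and 10uM ATP in 50mM Tris acetate pH 7.5, 10mM Mg acetate, 0.01% Tween-20, 0.05% BSA. Titration ~60uM to 300pM; luminescence read after about 5 min.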
# Potency is the fitted concentration of half-maximal effect.
row,SMILES,Potency
1,CCN1CCC(CC(=O)Nc2n[nH]c3nnc(-c4cccc(F)c4F)cc23)CC1,"inconclusive: 41.1 µM [inhibitor, single point]"
2,CS(=O)(=O)CCNCc1ccoc1-c1ccc2ncnc(Nc3ccc(OCc4ccccc4)cc3)c2c1,"inconclusive: 20.6 µM [inhibitor, partial curve, poor fit]"
3,CS(=O)(=O)Nc1cccc(-c2ccc3c(NC(=O)C4CC4)n[nH]c3c2)c1,"inconclusive: 20.6 µM [inhibitor, partial curve]"
4,FC(F)(F)c1cccc(Nc2nccc(-c3cnn4nc(-c5ccccc5)ccc34)n2)c1,inactive
5,NS(=O)(=O)c1ccc(N=Nc2c(O)[nH]c3ccc(-c4cnco4)cc23)cc1,inactive
6,Cc1ccc(Nc2ccnc(Nc3cccc(C(N)=O)c3)n2)cc1O,active: 1.46 µM
7,O=C(OC1CNC(C#Cc2cc3ncnc(Nc4ccc(OCc5cccc(F)c5)c(Cl)c4)c3s2)C1)N1CCOCC1 (centres undefined),"inconclusive: 20.6 µM [inhibitor, partial curve]"
8,Cc1ccc2c(-c3ccnc(Nc4cccc(C(F)(F)F)c4)n3)c(-c3ccccc3)nn2n1,"inconclusive: 41.1 µM [inhibitor, partial curve, poor fit]"
9,CCCN1CCC(Oc2cc(Nc3nc(Nc4cccc(F)c4C(N)=O)c4cc[nH]c4n3)c(OC)cc2Cl)CC1,"inconclusive: 0.291 µM [inhibitor, partial curve, poor fit]"
10,COc1cc(C=NNc2ncnc3[nH]ncc23)ccc1O,"inconclusive: 3.66 µM [inhibitor, full curve]"
11,O=C(Nc1n[nH]c2nc(-c3ccc(O)cc3)c(Br)cc12)C1CC1,"inconclusive: 20.6 µM [inhibitor, single point]"
12,O=S1CCN(Cc2ccc(-c3ccc4ncnc(Nc5ccc(OCc6ccccc6)c(F)c5)c4c3)o2)CC1,"inconclusive: 16.3 µM [inhibitor, partial curve]"
13,COC(=O)Nc1nc2ccc(Oc3ccc(NC(=O)Nc4cccc(Br)c4)cc3)cc2[nH]1,inactive
14,COc1ccccc1Nc1ncc(-c2ccccc2)o1,active: 1.03 µM
15,COc1cc(Nc2ncc3c(C)nc(-c4cccc(C(F)(F)F)c4)n3n2)cc(OC)c1OC,inactive
16,CN(C)C(=O)OC1CNC(C#Cc2cc3ncnc(Nc4ccc(OCc5cccc(F)c5)c(Cl)c4)c3s2)C1 (centres undefined),"inconclusive: 32.6 µM [inhibitor, partial curve, poor fit] and inconclusive: 29.1 µM [inhibitor, partial curve]"
17,CNC(=O)c1cncc(C=Cc2ccccc2Cl)c1,active: 9.19 µM
18,Cc1cc(-c2ccco2)cc(C)c1C=Cc1cncc(-c2nn[nH]n2)c1,"inconclusive: 20.6 µM [inhibitor, partial curve, poor fit]"
19,O=S(=O)(CCNCc1ccc(-c2ccc3ncnc(Nc4ccc(OCc5cccc(F)c5)c(Cl)c4)c3c2)o1)c1ccccc1,"inconclusive: 29.1 µM [inhibitor, partial curve, poor fit]"
20,CS(=O)(=O)CCNCc1ccc(-c2ccc3ncnc(Nc4ccc(OCc5ccccc5)cc4)c3c2)o1,"inconclusive: 18.3 µM [inhibitor, partial curve, poor fit]"
21,COC(=O)Nc1nc2ccc(Oc3ccc(NC(=O)Nc4ccccc4)cc3)cc2[nH]1,active: 14.6 µM
22,COc1ccc(C2=C(N3CCc4ccccc43)C(=O)NC2=O)cc1,inactive
23,c1ccc(-c2[nH]ncc2-c2ccnc(-c3ccc(OCCN4CCOCC4)cc3)c2)nc1,inactive
24,Cn1cc(C=C2C(=O)Nc3cccnc32)c2ccccc21,active: 14.6 µM
25,CN1CCC(n2cnc(-c3ccc(F)cc3)c2-c2ccnc(NCCO)n2)CC1,"inconclusive: 36.6 µM [inhibitor, partial curve, poor fit]"
26,COc1ccc(-c2oc3ncnc(N)c3c2-c2ccc(NC(=O)Nc3cc(C(F)(F)F)ccc3F)cc2)cc1,inactive
27,N#Cc1c(NC(=O)c2ccc(F)cc2)sc2c1CCCC2,active: 0.919 µM
28,O=C(NCC1CC1)c1ccc(-c2cccc(C(=O)NC3CC3)c2)cc1,"inconclusive: 9.19 µM [inhibitor, full curve]"
29,Oc1[nH]c2ccccc2c1C=Nc1ccc(-n2cncn2)cc1,active: 18.3 µM

# Part of the list above in order of SMILES length, low to high.
row,SMILES,Potency
28,O=C(NCC1CC1)c1ccc(-c2cccc(C(=O)NC3CC3)c2)cc1,"inconclusive: 9.19 µM [inhibitor, full curve]"
5,NS(=O)(=O)c1ccc(N=Nc2c(O)[nH]c3ccc(-c4cnco4)cc23)cc1,inactive
7,O=C(OC1CNC(C#Cc2cc3ncnc(Nc4ccc(OCc5cccc(F)c5)c(Cl)c4)c3s2)C1)N1CCOCC1 (centres undefined),"inconclusive: 20.6 µM [inhibitor, partial curve]"
